Measured values taken from PubChem BioAssay AID504667 (Broad Institute, 2011).
The shares of active, inactive and inconclusive entries below differ from those in the screen. Calls of active or inactive are those of the source.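 Rule for the calls: active = signal drops with a fitted half-maximal dose within ten times the top tested dose, in every replicate test; inconclusive = replicate tests disagree, or flat partial drop, or poor fit; inactive = the rest, including effects in the wrong direction.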

assay: growth inhibition of breast cancer stem-like cells, dose response, cell-based, HMLE_shECad, CellTiter-Glo luminescence, dry powder, set 6 (AID 504667); details: HMLE_shECad viability, 72 h; at 19.5 µM (top of the series) unless noted
Outline: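 Material: HMLE_shECad cells, stable E-cadherin knockdown, EMT-induced, CSC-like. Input: 2000 HMLE_shECad cells per well. Medium: serum-free CSC medium for cell seeding and exposure. Incubation: cell adherence ≥4 h at 37 °C, 5% CO2, compound exposure ~70-74 h. Technique: CellTiter-Glo luminescence.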

Structure (SMILES)	activity change, negative = inhibition
Cc1csc(NC(=O)c2ccc(COC(C)C)o2)n1	inconclusive: 6.07%
O=C(Nc1nc2cc(F)ccc2s1)c1ccc(COc2ccccc2)o1	inactive: -21.2% [at 30 µM]
Cc1coc(NC(=O)c2ccc(COc3ccccc3)o2)n1	inconclusive: -29.5%
O=C(Nc1nc2c(Cl)cccc2s1)c1ccc(COc2ccccc2)o1	inconclusive: -35.8% [at 30 µM]
Cc1csc(NC(=O)c2ccc(COc3ccc(S(C)(=O)=O)cc3)o2)n1	inconclusive: -16.5%
C/C(=C\C(=O)NC1=NCCS1)c1ccc(CC(C)C)cc1	inactive: -2.19%
Cc1csc(NC(=O)c2ccc(CS(=O)(=O)c3ccccc3)o2)n1	inconclusive: -19.4%
COc1ccc(OC)c2sc(NC(=O)c3ccc(COc4ccccc4)o3)nc12	inactive: -5.85% [at 30 µM]
C/C(=C\C(=O)NC1=NCCS1)c1ccc(C)cc1	inconclusive: -11.2%
